Data: PubChem BioAssay AID504467 (National Center for Advancing Translational Sciences (NCATS), 2011)
Hit rate of the full screen: of about 330,000 compounds, about 7,700 (2.3%) were called active. The inconclusive results got no clear call from the source; some entries with a clear call stand among them for comparison. The call rests on the fitted dose curve; in most records, active means well fitted inhibition curve with a large enough effect; inconclusive means small, poorly fitted or top-dose-only effect, or effect the other way; inactive means flat fitted curve, though single readings scatter. A potency beside an inconclusive call is a rough fit, not a confirmed value.
On the % scale 0 is the no-effect control and ±100 the full control effect; potency means the concentration at half of the fitted maximal effect.

Assay: qHTS screen for small molecules that inhibit ELG1-dependent DNA repair in human embryonic kidney (HEK293T) cells expressing luciferase-tagged ELG1; further: nearly all actives have a fitted effect of over 55% in size
Details: HEK293T ELG1-luciferase reporter, luminescence, 16 h, DNA damage induced by 5-fluorouridine; activity change, negative = inhibition: at 46.1 µM (top of the series)
Method in brief: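 Luminescence from the luciferase reporter, measured 30 min after ONE-Glo reagent at room temperature, was the read-out. Beforehand, 2,000 cells per well were exposed for 16 hr at 37 °C to 5-fluorouridine together with compound or vehicle.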
In the case of `COc1cccc(C(=O)O[C@@H]2[C@H](Cc3ccccc3)NS(=O)(=O)[C@H]3C[C@@H]4C=C[C@]23O4)c1`, the “activity change, negative = inhibition” value is reported as inactive: 11%. For `O=C(COC(=O)/C=C/c1cccs1)Nc1nc(-c2cccc(Br)c2)cs1`, the Potency was inconclusive: 25.9 µM [activator, partial curve]. With `CCc1ccc(C(=O)/C=C/c2cnn(C)c2C)s1` the Potency was inconclusive: 8.2 µM [activator, partial curve]. For `COc1ccc(NC(=O)COc2ccc(N(C)S(=O)(=O)c3ccc(C)cc3)cc2)cc1`, the Potency was inconclusive: 32.6 µM [inhibitor, single point]. With `O=C1c2ccccc2C(=O)N1CCCCN(C(=O)c1ccc([N+](=O)[O-])cc1)c1ccc(Cl)cc1` the Potency was inconclusive: 8.2 µM [inhibitor, partial curve]. In the case of `Cc1ccc(S(=O)(=O)NC(=O)Nc2ncc3c(n2)CC(c2ccco2)CC3=O)cc1` (stereo unspecified), the “activity change, negative = inhibition” value is reported as inactive: 5.08%. For `CCOc1ccc(-c2cc(C(=O)OC)[nH]n2)cc1`, the Potency was inconclusive: 18.3 µM [activator, partial curve]. For `COc1ccccc1CC(=O)Nc1ccc(S(=O)(=O)N2CCOCC2)cc1`, the Potency was inconclusive: 20.6 µM [inhibitor, single point]. With `Cc1cccc(NC(=O)CSCC(=O)N(C)CCOc2ccc(Cl)cc2)c1` the “activity change, negative = inhibition” value was inactive: -0.456%. With `O=C(Nc1nc2cc3c(cc2s1)OCO3)c1cccc(N2C(=O)CCC2=O)c1` the Potency was inconclusive: 23.1 µM [activator, partial curve]. For `O=C(N/N=C/c1cccc(OC(=O)c2cccc(Br)c2)c1)c1cccnc1`, the Potency was inconclusive: 1.16 µM [activator, single point]. For `O=c1c2cc(N3CCOCC3)ccc2[nH]c(=S)n1CCCN1CCCCCC1`, the Potency was inconclusive: 8.91 µM [inhibitor, partial curve, poor fit]. In the case of `COc1ccc(-c2cc(C(=O)NCC(c3ccco3)N(C)C)c3ccccc3n2)cc1OC` (stereo unspecified), the Potency is reported as inconclusive: 5.17 µM [inhibitor, single point]. With `O=C(OCc1nc2ccccc2s1)C1CCN(C2=NS(=O)(=O)c3ccccc32)CC1` the Potency was inconclusive: 20.6 µM [activator, partial curve]. For `COc1ccc(NC(=S)/N=C(\N)Nc2nc(C)c3ccccc3n2)cc1`, the Potency was inconclusive: 18.3 µM [inhibitor, single point]. With `COc1ccc(-c2cc(C(F)(F)F)nc(NC3CCCC3)n2)cc1OC` the Potency was inconclusive: 29.1 µM [inhibitor, partial curve, poor fit]. For `CCC1=Nc2ccccc2NC2=C1C(=O)CCC2`, the Potency was inconclusive: 13 µM [activator, partial curve]. In the case of `CCOC(=O)C1=C(CC)Nc2ccccc2N/C1=N\S(=O)(=O)c1cccc(C(C)=O)c1`, the “activity change, negative = inhibition” value is reported as inactive: 0%. In the case of `C[C@@H](NC(=O)c1[nH]cnc1C(=O)Nc1ccc(Cl)cc1)c1ccccc1`, the Potency is reported as inconclusive: 18.3 µM [inhibitor, single point]. With `O=C(NNS(=O)(=O)c1ccccc1)c1cc2cc3ccccc3nc2s1` the Potency was inconclusive: 15.8 µM [activator, partial curve, poor fit]. For `CC(=O)C1=C(O)C(=O)N(Cc2ccccc2)C1c1ccc(Cl)cc1` (stereo unspecified), the “activity change, negative = inhibition” value was inactive: 2.17%. In the case of `Cc1ccc(C(=O)C(C)Sc2nnc(N)s2)cc1` (stereo unspecified), the Potency is reported as inconclusive: 25.9 µM [activator, single point]. With `CC(C)(C)N1C(=O)c2ccc(C(=O)Nc3ccc(C(=O)O)cc3)cc2C1=O` the “activity change, negative = inhibition” value was inactive: 2.85%. In the case of `Cc1ccc2occ(/C=N/NC(=O)c3ccccc3O)c(=O)c2c1`, the Potency is reported as inconclusive: 5.17 µM [inhibitor, single point]. With `CN1C(=O)N(CC(=O)NCc2ccc(Cl)cc2Cl)C(=O)C12CCCCC2` the “activity change, negative = inhibition” value was inactive: 15.1%. With `O=C(Cn1cc(C(F)(F)F)ccc1=O)OCC(=O)c1ccc[nH]1` the Potency was inconclusive: 23.1 µM [activator, partial curve]. With `COc1ccc(CNS(=O)(=O)c2cc(-c3cc(C)no3)ccc2C(C)C)cc1` the Potency was inconclusive: 2.31 µM [inhibitor, partial curve]. In the case of `O=C(CN1CCOCC1)c1c[nH]c2ccccc12`, the “activity change, negative = inhibition” value is reported as inactive: 2.19%. With `CCOC(=O)c1ccc(NC(=O)CCN2C(=O)C3CC=CCC3C2=O)cc1` (stereo unspecified) the Potency was inconclusive: 16.4 µM [activator, single point]. In the case of `Cc1ccc(C(=O)N2N=C(c3ccc(NS(C)(=O)=O)cc3)CC2c2cccs2)cc1` (stereo unspecified), the Potency is reported as inconclusive: 23.1 µM [inhibitor, single point]. In the case of `COc1ccc(NC(=O)CSc2nccn2Cc2ccco2)cc1OC`, the “activity change, negative = inhibition” value is reported as inactive: 27.6%. In the case of `COc1ccc(-c2noc(CCC(=O)N3CCN(c4cccc(C(F)(F)F)c4)CC3)n2)cc1`, the Potency is reported as inconclusive: 25.9 µM [inhibitor, single point]. For `CCN(Cc1ccc(Cl)s1)C(=O)c1cccc(OCc2c(C)noc2C)c1`, the Potency was inconclusive: 29.1 µM [inhibitor, single point]. For `CCn1c(SC)nnc1-c1sc2cc(Cl)ccc2c1Cl`, the “activity change, negative = inhibition” value was inactive: -8.15%. With `NC(=O)C1(N2CCCCC2)CCN(C(=O)c2ccccc2)CC1` the Potency was inconclusive: 18.4 µM [activator, partial curve, poor fit]. With `CC(C)C(=O)N1CCN(c2ccccc2NC(=O)c2cc([N+](=O)[O-])ccc2N2CCOCC2)CC1` the Potency was inconclusive: 14.6 µM [inhibitor, partial curve]. For `CS(=O)(=O)c1ccc2nnn(OCC(=O)Nc3cccc(C#N)c3)c2c1`, the Potency was inconclusive: 4.11 µM [inhibitor, single point]. In the case of `Cn1c(SCC(=O)N/N=C/c2ccc(O)c(O)c2)nc2ccccc21`, the “activity change, negative = inhibition” value is reported as inactive: -9.45%. With `Cc1nnc(-c2ccccc2)[nH]c1=O` the “activity change, negative = inhibition” value was inactive: 2.1%. For `Cc1ccc(NC(=O)Nc2ccc(F)cc2)cc1Cl`, the Potency was inconclusive: 8.2 µM [activator, partial curve]. In the case of `CCOC(=O)N/N=C\C=C\c1ccco1`, the Potency is reported as inconclusive: 18.4 µM [activator, partial curve]. In the case of `O=C(NCC1CCCCC1)c1cccc(Br)c1`, the Potency is reported as inconclusive: 16.4 µM [activator, single point]. With `O=C1/C(=C/c2ccccc2)CCC1C1CCCC1` (stereo unspecified) the Potency was inconclusive: 23.1 µM [activator, partial curve]. In the case of `COc1cc(SC)ccc1C(=O)NC1CCCc2ccccc21` (stereo unspecified), the Potency is reported as inconclusive: 29.1 µM [inhibitor, single point]. With `O=C(COC(=O)C1CCN(c2ccc(C(F)(F)F)cn2)CC1)Nc1ncc(Cl)cc1Cl` the Potency was inconclusive: 35.5 µM [activator, single point]. In the case of `CCN(CC)CCOc1ccc2c(c1)C(=NNC(=O)c1ccccn1)c1cc(OCCN(CC)CC)ccc1-2`, the Potency is reported as inconclusive: 23.1 µM [inhibitor, single point]. In the case of `Cc1cccc(NC(=O)N2CCN(Cc3ccccc3)CC2)c1`, the Potency is reported as inconclusive: 20.6 µM [activator, partial curve]. For `CCOP(=O)(OCC)C(Nc1ccccc1)c1ccccc1C(F)(F)F` (stereo unspecified), the Potency was inconclusive: 29.1 µM [inhibitor, single point]. In the case of `CC(=O)Nc1cccc(/C(C)=N/Nc2nc3ccccc3s2)c1`, the Potency is reported as inconclusive: 6.51 µM [activator, single point]. With `CC(=O)c1ccc(NC(=O)/C=C/c2ccc(C)cc2)cc1` the Potency was inconclusive: 18.4 µM [activator, single point]. For `CC(Oc1ccccc1)c1ccnc2nc(N3CCOCC3)nn12` (stereo unspecified), the “activity change, negative = inhibition” value was inactive: -8.09%. In the case of `Cc1ncc([N+](=O)[O-])n1CCOC(=O)c1ccccc1`, the Potency is reported as inconclusive: 16.4 µM [activator, single point]. For `O=C(CCc1nc2ccccc2c(=O)[nH]1)N1CCCc2ccccc21`, the Potency was inconclusive: 20.6 µM [activator, partial curve]. For `CCCc1cc(C(=O)NC(C)C2CCCO2)cs1` (stereo unspecified), the Potency was inconclusive: 16.4 µM [activator, single point]. For `CC(C)NC(=O)c1ccc2c3n(nc2c1)-c1ccc(Cl)cc1CO3`, the Potency was inconclusive: 3.66 µM [activator, full curve]. For `Cc1ccc(C(=O)c2ccccc2C(=O)OCC(=O)N2CCCC2)cc1`, the Potency was inconclusive: 20.6 µM [activator, partial curve]. In the case of `CCCCNC(=O)C(=O)NCC1CCCN1S(=O)(=O)c1cccs1` (stereo unspecified), the “activity change, negative = inhibition” value is reported as inactive: 13.1%. In the case of `COc1ccc(-n2nc(C(=O)NCC(=O)Nc3cc(OC)c(OC)c(OC)c3)c3ccccc3c2=O)cc1OC`, the Potency is reported as active: 2.31 µM. With `Cc1cccc(-c2nc(CS(=O)CC(=O)NCCCSC3CCCCC3)c(C)o2)c1` (stereo unspecified) the Potency was inconclusive: 29.1 µM [inhibitor, single point]. For `O=C(c1ccc(Cl)c([N+](=O)[O-])c1)N1CCN(Cc2ccc3c(c2)OCO3)CC1`, the Potency was inconclusive: 16.4 µM [inhibitor, partial curve]. With `COc1ccccc1/C(C)=N/NC(=O)c1nnn(-c2nonc2N)c1C(C)C` the “activity change, negative = inhibition” value was inactive: -25.8%. With `COc1ccc(OC)c(-c2cc(C(=O)N3CCOCC3)no2)c1` the Potency was inconclusive: 20.6 µM [activator, partial curve, poor fit]. In the case of `Cc1ccccc1NC(=O)CC1SC(=O)N(c2ccccc2)C1=O` (stereo unspecified), the Potency is reported as inconclusive: 16.4 µM [activator, partial curve, poor fit]. With `Cc1cccc(OCc2nnc(SCC(=O)Nc3cc(C)on3)n2C)c1` the Potency was inconclusive: 4.61 µM [activator, full curve]. In the case of `Cc1nc2ccccc2c2oc(C(=O)N3CCC(C)CC3)cc12`, the Potency is reported as inconclusive: 18.3 µM [activator, partial curve]. With `Cc1ccc(S(=O)(=O)N2CCOCC2)cc1NC(=O)COC(=O)CNC(=O)c1ccc(C(C)(C)C)cc1` the Potency was inconclusive: 16.4 µM [activator, partial curve, poor fit].
